# Assay results from the supplement of paper PMC11438910.
# Some of the results follow. Only a few entries rise above the background.
# B1: 4-173.4 (protein)
# chain 1: QLQLQESGPGLVKPSETLSLTCAVSGGSISSHYWSWIRQPPGKGLEWIGRFSAGGGSTDYNPSLKSRVTISTDTSKNQFTLNLNSVTAADTAVYYCTRGSYTSDYWGQGVLVTVSS
# chain 2: QAALTQSPSVSGSPGQSVTISCTGTSSDIGGYIRVSWYQQHPGKAPKLMIYEVSKRPSGVSDRFSGSKSGNTASLTISGLQAEDEADYYCFSYARGDTVLLGGGTRLTVL
# B2: 4-80.3 (protein)
# chain 1: QVQLQESGPGLVKPSETLSLTCAVSGGSFSSYWWSWIRQPPGKGLEWIGEINGNSGSTNYNPSLKSRVTISKDASKNQFSLKLSSVTAADTAVYYCARYKNVWGRGVLVTVSS
# chain 2: DVVMTQSPLSLPITPGQPASISCRSSQSLVHSNGNTYLSWYQQKPGQPPRRLIYQVSNRDSGVPDRFSGSGAGTDFTLKISRVEAEDVGVYYCGQGTNVPTFGQGTKVEIK
# What was measured:
# Assay in all cases: fluorescence intensity of antibody binding to polysaccharide-coupled beads; higher = stronger binding
# [1] = biological target: pneumococcal polysaccharide Pn7A
# [2] = biological target: pneumococcal polysaccharide Pn7B
# [3] = biological target: pneumococcal polysaccharide Pn7C
# [4] = biological target: pneumococcal polysaccharide Pn7F
# [5] = biological target: pneumococcal polysaccharide Pn8
# [6] = biological target: pneumococcal polysaccharide Pn9A
# [7] = biological target: pneumococcal polysaccharide Pn9L
# [8] = biological target: pneumococcal polysaccharide Pn9N
# [9] = biological target: pneumococcal polysaccharide Pn9V
# [10] = biological target: pneumococcal polysaccharide C-Poly-1
# [11] = biological target: pneumococcal polysaccharide C-Poly-2
# [12] = biological target: pneumococcal polysaccharide Pn1
# [13] = biological target: pneumococcal polysaccharide Pn10A
# [14] = biological target: pneumococcal polysaccharide Pn10B
# [15] = biological target: pneumococcal polysaccharide Pn10C
# [16] = biological target: pneumococcal polysaccharide Pn10F
# [17] = biological target: pneumococcal polysaccharide Pn11A
# [18] = biological target: pneumococcal polysaccharide Pn11B
# [19] = biological target: pneumococcal polysaccharide Pn11C
# [20] = biological target: pneumococcal polysaccharide Pn11D
# [21] = biological target: pneumococcal polysaccharide Pn11F
# [22] = antibody concentration 2.8593 ng/mL
# [23] = antibody concentration 15.2894 ng/mL
# [24] = antibody concentration 81.7561 ng/mL
# [25] = antibody concentration 437.17 ng/mL
# [26] = antibody concentration 2337.65 ng/mL
# [27] = antibody concentration 12500 ng/mL
# [28] = antibody concentration 0.1 ng/mL
# [29] = antibody concentration 0.534724 ng/mL
binder,measurement,setting,value
B1,fluorescence intensity,[1]; [22],19.2 MFI
same,fluorescence intensity,[1]; [23],21 MFI
same,fluorescence intensity,[1]; [24],18 MFI
same,fluorescence intensity,[1]; [25],21.2 MFI
same,fluorescence intensity,[1]; [26],26.5 MFI
same,fluorescence intensity,[1]; [27],102 MFI
same,fluorescence intensity,[2]; [28],16 MFI
same,fluorescence intensity,[2]; [29],16.5 MFI
same,fluorescence intensity,[2]; [22],15.5 MFI
same,fluorescence intensity,[2]; [23],16.5 MFI
same,fluorescence intensity,[2]; [24],14.5 MFI
same,fluorescence intensity,[2]; [25],16.8 MFI
same,fluorescence intensity,[2]; [26],17.2 MFI
same,fluorescence intensity,[2]; [27],30.8 MFI
same,fluorescence intensity,[3]; [28],15 MFI
same,fluorescence intensity,[3]; [29],16.5 MFI
same,fluorescence intensity,[3]; [22],15.8 MFI
same,fluorescence intensity,[3]; [23],16 MFI
same,fluorescence intensity,[3]; [24],17 MFI
same,fluorescence intensity,[3]; [25],17.8 MFI
same,fluorescence intensity,[3]; [26],17.5 MFI
same,fluorescence intensity,[3]; [27],25.5 MFI
same,fluorescence intensity,[4]; [28],16 MFI
same,fluorescence intensity,[4]; [29],13.5 MFI
same,fluorescence intensity,[4]; [22],15 MFI
same,fluorescence intensity,[4]; [23],14.5 MFI
same,fluorescence intensity,[4]; [24],15.5 MFI
same,fluorescence intensity,[4]; [25],18 MFI
same,fluorescence intensity,[4]; [26],22.8 MFI
same,fluorescence intensity,[4]; [27],87.8 MFI
same,fluorescence intensity,[5]; [28],22 MFI
same,fluorescence intensity,[5]; [29],21.5 MFI
same,fluorescence intensity,[5]; [22],22.8 MFI
same,fluorescence intensity,[5]; [23],22.8 MFI
same,fluorescence intensity,[5]; [24],22.5 MFI
same,fluorescence intensity,[5]; [25],27.8 MFI
same,fluorescence intensity,[5]; [26],29 MFI
same,fluorescence intensity,[5]; [27],44.8 MFI
same,fluorescence intensity,[6]; [28],20.5 MFI
same,fluorescence intensity,[6]; [29],19.5 MFI
same,fluorescence intensity,[6]; [22],18.8 MFI
same,fluorescence intensity,[6]; [23],18.5 MFI
same,fluorescence intensity,[6]; [24],18 MFI
same,fluorescence intensity,[6]; [25],19.5 MFI
same,fluorescence intensity,[6]; [26],20.5 MFI
same,fluorescence intensity,[6]; [27],35.2 MFI
same,fluorescence intensity,[7]; [28],19 MFI
same,fluorescence intensity,[7]; [29],17 MFI
same,fluorescence intensity,[7]; [22],17 MFI
same,fluorescence intensity,[7]; [23],16 MFI
same,fluorescence intensity,[7]; [24],18 MFI
same,fluorescence intensity,[7]; [25],16.5 MFI
same,fluorescence intensity,[7]; [26],18.5 MFI
same,fluorescence intensity,[7]; [27],26.5 MFI
same,fluorescence intensity,[8]; [28],16.5 MFI
same,fluorescence intensity,[8]; [29],16.5 MFI
same,fluorescence intensity,[8]; [22],16 MFI
same,fluorescence intensity,[8]; [23],16 MFI
same,fluorescence intensity,[8]; [24],16 MFI
same,fluorescence intensity,[8]; [25],16.5 MFI
same,fluorescence intensity,[8]; [26],17 MFI
same,fluorescence intensity,[8]; [27],27.2 MFI
same,fluorescence intensity,[9]; [28],14 MFI
same,fluorescence intensity,[9]; [29],14 MFI
same,fluorescence intensity,[9]; [22],15.5 MFI
same,fluorescence intensity,[9]; [23],14 MFI
same,fluorescence intensity,[9]; [24],14 MFI
same,fluorescence intensity,[9]; [25],16.5 MFI
same,fluorescence intensity,[9]; [26],16.2 MFI
same,fluorescence intensity,[9]; [27],24 MFI
B2,fluorescence intensity,[10]; [28],23.5 MFI
same,fluorescence intensity,[10]; [29],28.8 MFI
same,fluorescence intensity,[10]; [22],26.5 MFI
same,fluorescence intensity,[10]; [23],28.5 MFI
same,fluorescence intensity,[10]; [24],28.2 MFI
same,fluorescence intensity,[10]; [25],46.8 MFI
same,fluorescence intensity,[10]; [26],176 MFI
same,fluorescence intensity,[10]; [27],1040 MFI
same,fluorescence intensity,[11]; [28],20.5 MFI
same,fluorescence intensity,[11]; [29],21.5 MFI
same,fluorescence intensity,[11]; [22],21.5 MFI
same,fluorescence intensity,[11]; [23],21 MFI
same,fluorescence intensity,[11]; [24],24.8 MFI
same,fluorescence intensity,[11]; [25],39.5 MFI
same,fluorescence intensity,[11]; [26],147 MFI
same,fluorescence intensity,[11]; [27],887 MFI
same,fluorescence intensity,[12]; [28],12.5 MFI
same,fluorescence intensity,[12]; [29],13.2 MFI
same,fluorescence intensity,[12]; [22],15.2 MFI
same,fluorescence intensity,[12]; [23],15.5 MFI
same,fluorescence intensity,[12]; [24],13.2 MFI
same,fluorescence intensity,[12]; [25],19.2 MFI
same,fluorescence intensity,[12]; [26],40.8 MFI
same,fluorescence intensity,[12]; [27],175 MFI
same,fluorescence intensity,[13]; [28],26.5 MFI
same,fluorescence intensity,[13]; [29],26.8 MFI
same,fluorescence intensity,[13]; [22],25.8 MFI
same,fluorescence intensity,[13]; [23],26.5 MFI
same,fluorescence intensity,[13]; [24],28 MFI
same,fluorescence intensity,[13]; [25],28.2 MFI
same,fluorescence intensity,[13]; [26],46.5 MFI
same,fluorescence intensity,[13]; [27],159 MFI
same,fluorescence intensity,[14]; [28],22.2 MFI
same,fluorescence intensity,[14]; [29],25.2 MFI
same,fluorescence intensity,[14]; [22],26 MFI
same,fluorescence intensity,[14]; [23],23.5 MFI
same,fluorescence intensity,[14]; [24],23.8 MFI
same,fluorescence intensity,[14]; [25],23.5 MFI
same,fluorescence intensity,[14]; [26],29.5 MFI
same,fluorescence intensity,[14]; [27],49.5 MFI
same,fluorescence intensity,[15]; [28],15 MFI
same,fluorescence intensity,[15]; [29],18 MFI
same,fluorescence intensity,[15]; [22],16.5 MFI
same,fluorescence intensity,[15]; [23],16.2 MFI
same,fluorescence intensity,[15]; [24],16 MFI
same,fluorescence intensity,[15]; [25],16 MFI
same,fluorescence intensity,[15]; [26],21.2 MFI
same,fluorescence intensity,[15]; [27],37.2 MFI
same,fluorescence intensity,[16]; [28],19 MFI
same,fluorescence intensity,[16]; [29],20.2 MFI
same,fluorescence intensity,[16]; [22],18.5 MFI
same,fluorescence intensity,[16]; [23],18 MFI
same,fluorescence intensity,[16]; [24],20.5 MFI
same,fluorescence intensity,[16]; [25],21 MFI
same,fluorescence intensity,[16]; [26],23.8 MFI
same,fluorescence intensity,[16]; [27],30.5 MFI
same,fluorescence intensity,[17]; [28],29.5 MFI
same,fluorescence intensity,[17]; [29],32 MFI
same,fluorescence intensity,[17]; [22],29.8 MFI
same,fluorescence intensity,[17]; [23],29 MFI
same,fluorescence intensity,[17]; [24],30.8 MFI
same,fluorescence intensity,[17]; [25],36.2 MFI
same,fluorescence intensity,[17]; [26],48 MFI
same,fluorescence intensity,[17]; [27],116 MFI
same,fluorescence intensity,[18]; [28],25 MFI
same,fluorescence intensity,[18]; [29],24 MFI
same,fluorescence intensity,[18]; [22],28.5 MFI
same,fluorescence intensity,[18]; [23],24.8 MFI
same,fluorescence intensity,[18]; [24],27.8 MFI
same,fluorescence intensity,[18]; [25],31.8 MFI
same,fluorescence intensity,[18]; [26],37 MFI
same,fluorescence intensity,[18]; [27],49.8 MFI
same,fluorescence intensity,[19]; [28],24 MFI
same,fluorescence intensity,[19]; [29],23.2 MFI
same,fluorescence intensity,[19]; [22],23 MFI
same,fluorescence intensity,[19]; [23],23 MFI
same,fluorescence intensity,[19]; [24],23.8 MFI
same,fluorescence intensity,[19]; [25],28.2 MFI
same,fluorescence intensity,[19]; [26],94.5 MFI
same,fluorescence intensity,[19]; [27],620 MFI
same,fluorescence intensity,[20]; [28],25.5 MFI
same,fluorescence intensity,[20]; [29],26.5 MFI
same,fluorescence intensity,[20]; [22],22.5 MFI
same,fluorescence intensity,[20]; [23],24 MFI
same,fluorescence intensity,[20]; [24],22.2 MFI
same,fluorescence intensity,[20]; [25],26 MFI
same,fluorescence intensity,[20]; [26],53 MFI
same,fluorescence intensity,[20]; [27],328 MFI
same,fluorescence intensity,[21]; [28],14.5 MFI
same,fluorescence intensity,[21]; [29],14 MFI

# Retrieved one by one from the entries so far (5):
binder,measurement,setting,value
B1,fluorescence intensity,[1]; [27],102 MFI
same,fluorescence intensity,[6]; [26],20.5 MFI
same,fluorescence intensity,[9]; [28],14 MFI
B2,fluorescence intensity,[19]; [28],24 MFI
same,fluorescence intensity,[18]; [26],37 MFI

# A second format for part of the listing above:
binder	measurement	setting	value
B1	fluorescence intensity	[6]; [22]	18.8 MFI
same	fluorescence intensity	[6]; [23]	18.5 MFI
same	fluorescence intensity	[6]; [24]	18 MFI
same	fluorescence intensity	[6]; [25]	19.5 MFI
same	fluorescence intensity	[6]; [26]	20.5 MFI
